Test results reported in PubChem BioAssay AID493014 (National Center for Advancing Translational Sciences (NCATS), 2011).
This is one part of the list. These are further read-outs of the screen, such as a control signal, another cell line or another target. No call is given for them. Compounds called inactive in the main read-out are mostly missing here. Potencies come from curve fits of mixed quality, noted in brackets.

Assay: qHTS Assay to Find Inhibitors of Chronic Active B-Cell Receptor Signaling
Settings: ABC-DLBCL IkBa-CBG/CBR reporter, luminescence ratio (green luciferase fused to IkBa over red control in TMD8 lymphoma cells), 4 h
Method in brief: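 TMD8 human ABC-DLBCL cells with doxycycline-inducible IκBα–green luciferase fusion and unfused red luciferase, in 0.5% FBS medium; compounds up to 46 uM, 4 h at 37C. Green/red luminescence ratio, filter-overlap corrected, fitted to concentration-response curves.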

[1] = measured here: CBR red luminescence, cell number
[2] = measured here: IkBa-CBG green luminescence

## CCOC(=O)c1cnn(-c2cc(Oc3cccc(C)c3)ncn2)c1N
[1]
  AC50: 10.3 µM [rising, partial curve, poor fit]

## O=C(NCC(c1ccco1)N1CCN(c2ccc(F)cc2)CC1)C(=O)NC1CCCC1 (stereo not drawn)
[1]
  AC50: 16.4 µM [rising, partial curve, poor fit]

## Oc1ccc(C2C(c3ccccc3)=NN=C(c3ccc(Cl)cc3)N2O)c(O)c1 (stereo not drawn)
[1]
  AC50: 4.61 µM [falling, partial curve]

## Cc1cc(C)n(-c2ccc(C(=O)OC(C)C)cc2)n1
[1]
  AC50: 35.5 µM [falling, single point]

## O=C(c1ccco1)N1CCN=C1SCc1c(F)cccc1Cl
[1]
  AC50: 7.94 µM [falling, partial curve]

## CS(=O)(=O)c1ccc(-c2csc(-c3cccnc3)n2)cc1
[1]
  AC50: 1.26 µM [rising, full curve, poor fit]

## O=C(NCC(c1ccco1)N1CCCC1)c1cc2cc(Cl)ccc2o1 (stereo not drawn)
[1]
  AC50: 6.51 µM [rising, single point]

## O=C(COc1ccccc1O)N1CCN(C(=O)c2ccco2)CC1
[1]
  AC50: 16.4 µM [rising, single point]

## COc1cc(C(C(=O)NC2CCCCC2)N(Cc2cccs2)C(=O)Cc2c[nH]c3ccccc23)cc(OC)c1OC (stereo not drawn)
[1]
  AC50: 0.112 µM [rising, full curve, poor fit]

## O=C1CN(C(=O)c2ccccc2[N+](=O)[O-])C(c2ccccc2)c2cc(Br)ccc2N1 (stereo not drawn)
[1]
  AC50: 10 µM [falling, partial curve]

## S=C(c1cn(CCOc2ccccc2)c2ccccc12)N1CCCC1
[1]
  AC50: 32.6 µM [falling, single point]

## CN1CCN(CC(=O)N2c3ccccc3C(C)(c3ccc(Cl)cc3)CC2(C)C)CC1 (stereo not drawn)
[1]
  AC50: 23.1 µM [falling, single point]

## Cc1cc(OCCSc2nnc(-c3cccs3)n2C)ccc1Cl
[1]
  AC50: 35.5 µM [falling, single point]

## CCCN1C(=O)/C(=N\OCC(=O)Nc2ccc(C(C)C)cc2)c2ccccc21
[1]
  AC50: 29.1 µM [falling, single point]

## COc1ccc2oc(-c3cccc(NC(=O)CSc4ccc(Cl)cc4)c3)nc2c1
[1]
  AC50: 16.4 µM [rising, partial curve, poor fit]

## O=C(O)C1CCCN1c1ncnc2ccccc12 (stereo not drawn)
[1]
  AC50: 6.51 µM [falling, single point]

## O=C1N2CCSC2=NC1(Nc1ccccn1)C(F)(F)F (stereo not drawn)
[1]
  AC50: 35.5 µM [falling, single point]

## O=C(NNc1ccccc1[N+](=O)[O-])Nc1cccc(Cl)c1
[1]
  AC50: 35.5 µM [falling, single point]

## O=C(NCc1cccs1)C1CCCN(S(=O)(=O)c2cnc[nH]2)C1 (stereo not drawn)
[1]
  AC50: 0.461 µM [falling, full curve, poor fit]

## NC(=O)COC(=O)c1cc(-c2ccco2)nc2ccccc12
[1]
  AC50: 10 µM [falling, partial curve, poor fit]

## O=C(CSc1ncn[nH]1)Nc1nsc(-c2ccccc2)n1
[1]
  AC50: 20.6 µM [falling, partial curve]

## Cc1c(Br)c(=O)oc2c(Br)c(O)ccc12
[1]
  AC50: 0.112 µM [falling, full curve, poor fit]

## COc1ccc(C(NC(=O)c2c(F)c(F)c(F)c(F)c2F)c2ccccc2)cc1 (stereo not drawn)
[1]
  AC50: 18.4 µM [falling, partial curve]

## COc1ccc(S(=O)(=O)N(CC(=O)NCc2ccco2)c2ccccc2)cc1
[1]
  AC50: 23.1 µM [falling, partial curve, poor fit]

## CCCCNCCOc1ccccc1-c1ccccc1
[1]
  AC50: 32.6 µM [falling, partial curve, poor fit]

## COc1ccc(C)cc1NC(=O)NC1CCN(Cc2ccccc2)CC1
[1]
  AC50: 6.51 µM [rising, partial curve, poor fit]
[2]
  AC50: 6.51 µM [falling, single point]

## Cn1cc(Cl)c(/C=C(\C#N)S(=O)(=O)c2ccccc2)n1
[1]
  AC50: 0.251 µM [falling, full curve, poor fit]

## COc1cc2c(cc1NC(=O)c1ccco1)CCCC2
[1]
  AC50: 2.59 µM [rising, full curve, poor fit]

## Nc1nnc(SCCCOc2ccc(F)cc2)s1
[1]
  AC50: 5.62 µM [falling, full curve]

## CCOc1ccc(CN2C(=O)c3ccccc3C2C(=O)NCc2cccnc2)cc1 (stereo not drawn)
[1]
  AC50: 13 µM [falling, partial curve, poor fit]

## Cc1nc(SCCOc2ccccc2F)[nH]c(=O)c1Cc1ccccc1
[2]
  AC50: 3.55 µM [rising, partial curve, poor fit]

## CCCc1cc(=O)[nH]c(-n2[nH]c3c(c2=O)CCCC3)n1
[1]
  AC50: 11.2 µM [falling, partial curve]

## O=C(CS(=O)(=O)c1cn(Cc2ccc(F)cc2)c2ccccc12)N1CCCCC1
[1]
  AC50: 0.0651 µM [rising, full curve, poor fit]

## O=C(Nc1ccc(Br)cc1)c1ccc2c(c1)OCO2
[1]
  AC50: 15.8 µM [falling, single point]

## COC(=O)c1nc(NC(=O)c2ccccc2Cl)n[nH]1
[1]
  AC50: 2.06 µM [rising, partial curve, poor fit]

## COc1cccc2c(=O)c3ccccc3oc12
[1]
  AC50: 0.794 µM [falling, full curve, poor fit]

## COc1cccc(OC)c1OCCCOc1ccc([N+](=O)[O-])cc1Cl
[1]
  AC50: 6.51 µM [rising, full curve, poor fit]

## O=C(NCCOc1ccccc1)c1n[nH]c(=O)c2ccccc12
[1]
  AC50: 0.731 µM [rising, partial curve, poor fit]

## COc1cc(/C=N\NC(=O)c2nonc2N)c(OC)cc1Br
[1]
  AC50: 16.4 µM [rising, partial curve]

## CCCCC(=O)N/N=C/c1ccc(-c2ccc([N+](=O)[O-])cc2)o1
[1]
  AC50: 14.1 µM [rising, single point]

## O=C(CCc1ccccc1)NNC(=O)c1ccccc1Cl
[1]
  AC50: 12.6 µM [falling, single point]

## Cc1ccc(Nc2nc(CSc3nnc(-c4cccnc4)n3-c3ccccc3C)cs2)cc1
[1]
  AC50: 32.6 µM [falling, single point]
